Where two headings read alike, the source gives them in different places. At least one compound was matched to its structure with a doubt left. Marks after values point to notes of the source that are not given here.
Assays:
[1] = tested on: Palaeomonetes pugio (grass shrimp); test: Cadmium stress: biomarker responses in grass shrimp; type: in vivo; details: 8-hour exposure
Description: During the seven-day acclimation, grass shrimp were subject to a […] photosynthetic-active-radiation 14 hour photoperiod at 22° C. […] Dissolved oxygen, ammonia content, and temperature were continually monitored throughout the seven-day chamber acclimation.
Cadmium stress—Grass shrimp were subjected to an 8-hour exposure to 0 M, […], and […] cadmium chloride. The solvent carrier was water.
Samples were vortexed for 30 seconds and then centrifuged at 10,000× g for 5 minutes. The supernatant was placed in a new tube for LPO and GSH analyses. Protein concentration of samples were assayed by the method of Ghosh et al. (1988), supra.
Samples were then boiled for 3 minutes, allowed to sit at 25° C. for 5 minutes, and then centrifuged at 10,000× g for 5 minutes. […] The sample was then subjected to another protein concentration assay.
Samples were analyzed for LPO and total GSH content following the manufacturer's instruction. Samples for each assay were analyzed in triplicate, and sample means provided independent unit of statistical analysis.
All samples were analyzed in triplicate. ELISPOT technique on nitrocellulose membrane was employed using a dot blot apparatus.

[2] = tested on: Ilyanassa obsoleta (mud snails); type: in vivo; details: 8-hour exposure
Description: Tanks were aerated with air stones. Snails were fed commercially available algal pellets.
The solvent carrier was water.
No evidence of either was found.
Samples for each assay were analyzed in triplicate.
Sample was then subjected to another protein concentration assay.
All samples were analyzed in triplicate.

For [Cl][Cd][Cl] [Cadmium Chloride, cadmium chloride], the B-crystallin ([1]; high: 50 uM cadmium chloride) was 930^c ± 68 ng Hsp or B-crystallin/ g total protein, the GSH ([1]; high: 50 uM cadmium chloride) was 1.83^b ± 0.151 mM GSH/mg total protein and the Hsp60 ([1]; high: 50 uM cadmium chloride) was 183^b ± 10.9 ng Hsp or B-crystallin/ g total protein. For the same molecule, the Hsp70 ([1]; high: 50 uM cadmium chloride) was 47^b ± 5.3 ng Hsp or B-crystallin/ g total protein, the LPO ([1]; high: 50 uM cadmium chloride) was 17.2^c ± 1.84 mM LPO/mg total protein and the “Metallo. (metallothionein)” value ([1]; high: 50 uM cadmium chloride) was 17.5^c ± 1.36 ng metallothionein/mg total protein. The ubiquitin ([1]; high: 50 uM cadmium chloride) was 6.16^c ± 0.674 nanog ubiquitin/ g total protein, the B-crystallin ([1]; low: 1 uM cadmium chloride) was 500^ab ± 43 ng Hsp or B-crystallin/ g total protein and the GSH ([1]; low: 1 uM cadmium chloride) was 1.21^a ± 0.053 mM GSH/mg total protein. The Hsp60 ([1]; low: 1 uM cadmium chloride) was 153^a,b ± 10.7 ng Hsp or B-crystallin/ g total protein, the Hsp70 ([1]; low: 1 uM cadmium chloride) was 30^a ± 0.9 ng Hsp or B-crystallin/ g total protein and the LPO ([1]; low: 1 uM cadmium chloride) was 8.5^b ± 0.85 mM LPO/mg total protein. The “Metallo. (metallothionein)” value ([1]; low: 1 uM cadmium chloride) was 13.6^b ± 0.79 ng metallothionein/mg total protein, the ubiquitin ([1]; low: 1 uM cadmium chloride) was 4.36^b ± 0.121 nanog ubiquitin/ g total protein and the B-crystallin ([1]; medium: 5 uM cadmium chloride) was 660^b ± 46 ng Hsp or B-crystallin/ g total protein. For the same molecule, the GSH ([1]; medium: 5 uM cadmium chloride) was 1.40^a ± 0.069 mM GSH/mg total protein, the Hsp60 ([1]; medium: 5 uM cadmium chloride) was 168^b ± 14.8 ng Hsp or B-crystallin/ g total protein and the Hsp70 ([1]; medium: 5 uM cadmium chloride) was 27^a ± 0.9 ng Hsp or B-crystallin/ g total protein. For the same molecule, the LPO ([1]; medium: 5 uM cadmium chloride) was 13.2^c ± 0.73 mM LPO/mg total protein, the “Metallo. (metallothionein)” value ([1]; medium: 5 uM cadmium chloride) was 15.0^bc ± 0.83 ng metallothionein/mg total protein and the ubiquitin ([1]; medium: 5 uM cadmium chloride) was 4.74^bc ± 0.178 nanog ubiquitin/ g total protein. For the same molecule, the B-crystallin ([2]; high: 50 M cadmium chloride) was 76^b ± 6.4 pg Hsp or B-crystallin/ g total protein, the GSH ([2]; high: 50 M cadmium chloride) was 60^b ± 2.8 mM GSH/ g total protein and the Hsp22 ([2]; high: 50 M cadmium chloride) was 64^c ± 11.0 pg Hsp or B-crystallin/ g total protein. For the same molecule, the Hsp26 ([2]; high: 50 M cadmium chloride) was 58^c ± 5.3 pg Hsp or B-crystallin/ g total protein, the Hsp60 ([2]; high: 50 M cadmium chloride) was 0.509^b ± 0.0558 pg Hsp or B-crystallin/ g total protein and the Hsp70 ([2]; high: 50 M cadmium chloride) was 72.8^b ± 7.24 pg Hsp or B-crystallin/ g total protein. For the same molecule, the “Metallo. (metallothionein)” value ([2]; high: 50 M cadmium chloride) was 70.2^c ± 5.56 ng metallothionein/mg total protein, the “Mn SOD” value ([2]; high: 50 M cadmium chloride) was 61.8^b ± 4.14 relative protein concentrations and the ubiquitin ([2]; high: 50 M cadmium chloride) was 50^b ± 5.0 ng ubiquitin/ g total protein. For the same molecule, the B-crystallin ([2]; low: 5 M cadmium chloride) was 54^b ± 9.6 pg Hsp or B-crystallin/ g total protein, the GSH ([2]; low: 5 M cadmium chloride) was 64^b ± 2.4 mM GSH/ g total protein and the Hsp22 ([2]; low: 5 M cadmium chloride) was 31^b ± 5.9 pg Hsp or B-crystallin/ g total protein. For the same molecule, the Hsp26 ([2]; low: 5 M cadmium chloride) was 32^b ± 4.1 pg Hsp or B-crystallin/ g total protein, the Hsp70 ([2]; low: 5 M cadmium chloride) was 66.4^b ± 12.32 pg Hsp or B-crystallin/ g total protein and the “Metallo. (metallothionein)” value ([2]; low: 5 M cadmium chloride) was 52.0^b ± 4.48 ng metallothionein/mg total protein. For the same molecule, the “Mn SOD” value ([2]; low: 5 M cadmium chloride) was 58.2^b ± 5.30 relative protein concentrations and the ubiquitin ([2]; low: 5 M cadmium chloride) was 40^ab ± 2.8 ng ubiquitin/ g total protein.

Source: US20030138812A1, “Assessment of ecosystem health by evaluating multiple biomarkers in a nonhuman organism” (priority 2000, published 2003)
